Test results: the supplement of paper PMC10331698
± gives the standard deviation of the averaged measurements. Most values lie at the level of the controls, where differences are scatter.

How the values were obtained:
Assay in all cases: level (log10 ratio to DMSO vehicle control); higher = higher biomarker level / cell amount than vehicle control
[1] = compound: C=C(C)C(=O)OCCC(F)(F)C(F)(F)C(F)(F)C(F)(F)C(F)(C(F)(F)F)C(F)(F)F [(Perfluoro-5-methylhexyl)ethyl 2-methylprop-2-enoate]; conditions: in DMSO
Description: (§1)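 BioMAP Diversity Plus panel of 12 human primary cell co-culture systems (3C, 4H, LPS, SAg, BT, BF4T, BE3C, CASM3C, HDF3CGF, KF3CT, MyoF, Mphg). Compounds were added 1 h before stimulation and left for 24 h (MyoF 48 h; BT 72 h for soluble read-outs or 6 d for IgG). Biomarkers were read by ELISA, cytotoxicity by SRB, PBMC viability and proliferation by Alamar Blue. Each well value was divided by the mean of 8 DMSO control wells on the same plate and log10 transformed; duplicate blinded samples were tested at 4 concentrations.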

[2] = compound: C=C(C)C(=O)OCCC(F)(F)C(F)(F)C(F)(F)C(F)(F)C(F)(F)C(F)(F)C(F)(F)C(F)(F)F [8:2 Fluorotelomer methacrylate]; conditions: in DMSO
Description: as §1

[3] = compound: COC(=O)CCC(F)(F)C(F)(F)C(F)(F)C(F)(F)F [Methyl 2H,2H,3H,3H-perfluoroheptanoate]; conditions: 2200 nM; in DMSO
Description: as §1

[4] = compound: FC(F)(F)C(F)(F)C(F)(F)C(F)(F)C(F)(F)CCI [1-Iodo-1H,1H,2H,2H-perfluoroheptane]; conditions: 2200 nM; in DMSO
Description: as §1

Octafluoroadipamide = compound: NC(=O)C(F)(F)C(F)(F)C(F)(F)C(F)(F)C(N)=O [Octafluoroadipamide]; conditions: 2200 nM; in DMSO
Description: as §1

Nonafluoropentanamide = compound: NC(=O)C(F)(F)C(F)(F)C(F)(F)C(F)(F)F [Nonafluoropentanamide]; conditions: 2200 nM; in DMSO
Description: as §1

[5] = compound: NS(=O)(=O)C(F)(F)C(F)(F)C(F)(F)C(F)(F)C(F)(F)C(F)(F)F [Perfluorohexanesulfonamide]; conditions: 2200 nM; in DMSO
Description: as §1

Tetrafluorosuccinic acid = compound: O=C(O)C(F)(F)C(F)(F)C(=O)O [Tetrafluorosuccinic acid]; conditions: 2200 nM; in DMSO
Description: as §1

[6] = compound: O=C(O)C(F)(F)C(F)(F)C(F)(F)C(F)(F)C(F)(F)C(F)(F)C(F)(F)C(F)(F)Cl [9-Chloro-perfluorononanoic acid]; conditions: in DMSO
Description: as §1

[7] = compound: O=C(O)CCC(F)(F)C(F)(F)C(F)(F)C(F)(F)C(F)(F)F [2H,2H,3H,3H-Perfluorooctanoic acid]; conditions: 2200 nM; in DMSO
Description: as §1

[8] = compound: O=S(=O)(O)C(F)(F)C(F)(F)OC(F)(F)C(F)(F)F [Perfluoro(2-ethoxyethane)sulfonic acid]; conditions: 2200 nM; in DMSO
Description: as §1

[9] = compound: O=S(=O)(O)CCC(F)(F)C(F)(F)C(F)(F)C(F)(F)C(F)(F)C(F)(F)F [6:2 Fluorotelomer sulfonic acid]; conditions: in DMSO
Description: as §1

Perfluoropinacol = compound: OC(C(F)(F)F)(C(F)(F)F)C(O)(C(F)(F)F)C(F)(F)F [Perfluoropinacol]; conditions: in DMSO
Description: as §1

[10] = compound: OCCC(F)(F)C(F)(F)C(F)(F)C(F)(F)F [4:2 Fluorotelomer alcohol]; conditions: 2200 nM; in DMSO
Description: as §1

Test System	level (log10) ([1]; 740 nM)	level (log10) ([1]; 2200 nM)	level (log10) ([1]; 6700 nM)	level (log10) ([1]; 20000 nM)	level (log10) ([2]; 740 nM)	level (log10) ([2]; 2200 nM)	level (log10) [3]	level (log10) [4]	level (log10) (Octafluoroadipamide)	level (log10) (Nonafluoropentanamide)	level (log10) [5]	level (log10) (Tetrafluorosuccinic acid)	level (log10) ([6]; 2200 nM)	level (log10) ([6]; 6700 nM)	level (log10) ([6]; 20000 nM)	level (log10) [7]	level (log10) [8]	level (log10) ([9]; 2200 nM)	level (log10) ([9]; 6700 nM)	level (log10) ([9]; 20000 nM)	level (log10) ([9]; 60000 nM)	level (log10) (Perfluoropinacol; 2200 nM)	level (log10) (Perfluoropinacol; 6700 nM)	level (log10) (Perfluoropinacol; 20000 nM)	level (log10) [10]
CASM3C:HLA-DR	-0.0125 ± 0.0064	-0.0185 ± 0.0078	-0.0175 ± 0.019	-0.01 ± 0.0085	0.009 ± 0.013	0.0015 ± 0.0078	0.015 ± 0.013	0.008 ± 0.025	0.007 ± 0.072	-0.0205 ± 0.013	0.0125 ± 0.039	-0.008 ± 0.0028	0.01 ± 0.016	0.0085 ± 0.0035	0.0015 ± 0.012	-0.0025 ± 0.04	0.0185 ± 0.011	0.0085 ± 0.029	0.0245 ± 0.005	-0.0115 ± 0.0035	-0.001 ± 0.0085	-0.0335 ± 0.0021	-0.0885 ± 0.042	-0.207	-0.0185 ± 0.00071
BF4T:MMP-9	-0.0255 ± 0.043	-0.0115 ± 0.021	-0.036 ± 0.05	-0.007 ± 0.038	0.028 ± 0.1	0.0125 ± 0.077	-0.008 ± 0.014	-0.004 ± 0.033	0.0015 ± 0.029	-0.028 ± 0.016	0.0215 ± 0.035	-0.0015 ± 0.018	-0.028 ± 0.064	-0.0395 ± 0.036	-0.0715 ± 0.019	0.0085 ± 0.059	0.015 ± 0.033	0.0085 ± 0.05	-0.0015 ± 0.036	-0.0095 ± 0.0078	0.018 ± 0.024	-0.0035 ± 0.023	-0.0245 ± 0.00071	-0.0515 ± 0.0092	-0.011 ± 0.027
CASM3C:PAI-I	-0.007 ± 0.0057	-0.0135 ± 0.005	-0.004 ± 0.0014	0.002 ± 0.0014	0.0035 ± 0.00071	-0.0015 ± 0.00071	0.0015 ± 0.013	0.0025 ± 0.0064	-0.0005 ± 0.025	0.0065 ± 0.0092	-0.0045 ± 0.0092	-0.002 ± 0.0028	-0.0095 ± 0.0078	-0.002 ± 0.0071	0.0065 ± 0.0078	-0.0065 ± 0.019	0.0025 ± 0.00071	0.001 ± 0.02	-0.001 ± 0.023	-0.0025 ± 0.015	0 ± 0.0099	-0.0025 ± 0.0078	-0.006 ± 0.0071	-0.0075 ± 0.0064	0.017 ± 0.0028
CASM3C:Proliferation	-0.025 ± 0.0014	-0.0105 ± 0.035	-0.036 ± 0.0014	-0.054 ± 0.071	0.025 ± 0.033	-0.018 ± 0.018	-0.0285 ± 0.019	-0.011 ± 0.061	-0.068 ± 0.057	-0.0275 ± 0.005	-0.0255 ± 0.025	-0.0225 ± 0.12	0.0005 ± 0.025	-0.016 ± 0.02	0.004 ± 0.025	0.01 ± 0.034	0.0055 ± 0.018	0 ± 0.085	-0.0095 ± 0.029	0.024 ± 0.033	0.026 ± 0.018	0.002 ± 0.023	-0.02 ± 0.013	-0.122 ± 0.035	0.0025 ± 0.026
4H:CD87/uPAR	-0.001 ± 0.04	-0.0005 ± 0.0092	0.0115 ± 0.037	0 ± 0.0071	-0.02 ± 0.058	-0.0375 ± 0.056	-0.003 ± 0.0099	0.0275 ± 0.022	-0.022 ± 0.04	0.0135 ± 0.022	0 ± 0.045	-0.034 ± 0.072	0.0145 ± 0.05	0.0055 ± 0.033	0.002 ± 0.0099	0.0095 ± 0.021	0.0145 ± 0.028	-0.0115 ± 0.021	-0.0005 ± 0.029	0.001 ± 0.031	-0.002 ± 0.04	-0.0385 ± 0.021	-0.117 ± 0.022	-0.226 ± 0.029	0.0015 ± 0.025
HDF3CGF:MMP-1	0.002 ± 0.024	0.013 ± 0.013	0.002 ± 0.0085	0.008 ± 0.018	0.0055 ± 0.019	0.01 ± 0.0014	-0.0075 ± 0.0078	0.0225 ± 0.00071	0.002 ± 0.0057	0.005 ± 0.0014	-0.0155 ± 0.021	0.0205 ± 0.013	-0.058 ± 0.016	-0.0875 ± 0.005	-0.118 ± 0.011	-0.026 ± 0.016	-0.0185 ± 0.03	-0.0075 ± 0.043	-0.015 ± 0.027	-0.039 ± 0.03	-0.036 ± 0.064	0.004 ± 0.042	0.024 ± 0.023	0.017 ± 0.014	-0.02 ± 0.018
CASM3C:CCL2/MCP-1	0.0025 ± 0.015	0.0025 ± 0.00071	0.002 ± 0.023	0.0105 ± 0.005	0.0045 ± 0.039	-0.009 ± 0.011	0.0035 ± 0.023	-0.0035 ± 0.028	0.009 ± 0.059	0.0105 ± 0.0078	-0.003 ± 0.023	0.012 ± 0.021	0.019 ± 0.047	-0.0085 ± 0.011	-0.011 ± 0.0028	0.0245 ± 0.033	0.022 ± 0.038	0.02 ± 0.033	-0.0125 ± 0.011	-0.01	0.0225 ± 0.032	-0.007 ± 0.073	0.0185 ± 0.013	0.096 ± 0.017	0.0005 ± 0.032
BF4T:SRB	-0.0085 ± 0.005	-0.008 ± 0.016	-0.016 ± 0.011	-0.007 ± 0.025	0.019 ± 0.0099	0.0075 ± 0.0078	-0.004 ± 0.0057	0.006 ± 0.013	0.0025 ± 0.016	-0.0075 ± 0.012	0.009 ± 0.013	0.0015 ± 0.005	0.0045 ± 0.015	-0.013 ± 0.0071	-0.0555 ± 0.0064	0.0235 ± 0.022	0.016 ± 0.023	0.0185 ± 0.026	0.0005 ± 0.00071	-0.003 ± 0.0042	-0.003 ± 0.0057	0.005 ± 0.018	-0.0135 ± 0.0021	-0.031 ± 0.0014	0.009 ± 0.0042
CASM3C:SRB	-0.005 ± 0.0057	0.0025 ± 0.005	-0.0025 ± 0.005	-0.0095 ± 0.0035	0.0055 ± 0.0078	-0.0025 ± 0.0021	0.001 ± 0.0071	-0.0015 ± 0.0078	0.0125 ± 0.03	0.0055 ± 0.00071	0.0085 ± 0.0021	-0.004 ± 0.0014	-0.0015 ± 0.013	-0.001 ± 0.0028	0.0045 ± 0.0078	-0.0015 ± 0.015	-0.001 ± 0.017	-0.0015 ± 0.0021	-0.004 ± 0.0028	0.0025 ± 0.0021	0.001 ± 0.0085	-0.0025 ± 0.019	-0.02 ± 0.0099	-0.061 ± 0.0057	-0.0015 ± 0.011
lMphg:CCL3/MIP-1alpha	0.014 ± 0.0028	0.025 ± 0.061	-0.008 ± 0.034	-0.0125 ± 0.044	0.0035 ± 0.03	-0.01 ± 0.0028	-0.0045 ± 0.032	0.038 ± 0.0042	-0.0065 ± 0.019	0.0005 ± 0.025	0.0035 ± 0.0078	0.0095 ± 0.00071	0.034 ± 0.065	0.0205 ± 0.029	0.0045 ± 0.046	0.038 ± 0.079	0.021 ± 0.0028	0.0185 ± 0.053	0.014 ± 0.021	0.072 ± 0.02	0.0565 ± 0.039	0.0775 ± 0.049	0.116 ± 0.047	0.116 ± 0.062	-0.003 ± 0.045
